Results on 56 compounds are retold here after PubChem BioAssay AID1487 (National Center for Advancing Translational Sciences (NCATS), 2009).

Structures are written as SMILES. Some of the results follow. These are further read-outs of the screen, such as a control signal, another cell line or another target. No call is given for them. The list favours compounds with an active or inconclusive main result. Words in brackets tell the shape of the fitted curve; partial curves, single points and poor fits give uncertain potencies.

A short description of the test: qHTS Assay for Modulators of Lamin A Splicing. The conditions noted are these: HeLa LMNA splicing GFP/RFP minigene ratio, 48 h. A digest of the protocol:
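S3 HeLa stable clones carrying a lamin A-EGFP splicing minigene plus DsRed2 were seeded at 600 cells/well in Opti-MEM with 2% FBS, pin-dosed and incubated 48 h at 37°C. Acumen cytometry (488 nm) gave the GFP/RFP total-intensity ratio.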
(In qHTS, concentration-response curves come from the screen itself.)

Setting [1] is: measured here: RFP viability control channel.
Where [2] appears, read: measured here: GFP splicing reporter channel.

Usually AC50 stands for the concentration at which the activity in the assay is half-maximal. As to `COc1ccc2c(c1)sc1nc(-c3ccccc3)cn12`, the AC50 under setting [1] is 2 µM [rising, full curve, poor fit].

Regarding `O=C(NCc1cccnc1)c1nc(-c2cccs2)no1`, the AC50 under setting [2] is 0.0708 µM [falling, full curve, poor fit] and the AC50 under setting [1] was 0.0316 µM [falling, full curve, poor fit].

Consider `Cc1ccccc1OCc1nc2ccccc2c(=O)n1/N=C/c1cn[nH]c1-c1ccc(Br)cc1`, for which the concentration at half-maximal activity (AC50) runs as follows: under setting [2], 6.31 µM [rising, full curve, poor fit]; under setting [1], 12.6 µM [rising, partial curve, poor fit].

As to `CC(C)OCCCNC(=S)Nc1ccc(S(N)(=O)=O)cc1`, the AC50 under setting [2] is 6.31 µM [rising, single point].

Regarding `COc1ccc(C(=O)c2c(C)oc3cc([N+](=O)[O-])c(O)c([N+](=O)[O-])c23)cc1`, the AC50 is 15.8 µM [rising, partial curve, poor fit] under setting [2] and 12.6 µM [rising, partial curve, poor fit] under setting [1].

Turning to `Cc1ccc(-n2ncc3c(Nc4cccc(C(F)(F)F)c4)ncnc32)cc1C`, the concentration at half-maximal activity (AC50) reads like this: under setting [2], 17.8 µM [falling, partial curve]; under setting [1], 22.4 µM [falling, partial curve, poor fit].

As to `C/C(CC(=O)NCc1ccco1)=N\NC(=O)CC#N`, under setting [2], the AC50 was 0.00708 µM [rising, full curve, poor fit].

Take `COC(=O)c1c(-c2ccc(C)cc2)csc1NC(=O)c1c(-c2ccccc2)noc1C`: the AC50 under setting [1] is 7.08 µM [rising, full curve].

`C=CCn1c(=NC(=O)c2ccco2)sc2cc(C(=O)OCC)ccc21`: the AC50 under setting [1] was 3.16 µM [rising, single point].

In the case of `CCOC(=O)c1ccc(NS(=O)(=O)c2ccc(Cl)nc2)cc1`, the concentration at half-maximal activity (AC50) under setting [2] is 3.55 µM [falling, partial curve, poor fit].

Take `NS(=O)(=O)c1ccc(NC(=O)c2csnn2)cc1`: the AC50 under setting [2] was 0.794 µM [falling, full curve].

Regarding `COc1ccc(OCC2c3cc(OC)c(OC)cc3CCN2C(=O)c2c(F)cccc2F)cc1` (stereo not given), the AC50 under setting [1] is 11.2 µM [rising, single point].

Turning to `O=C(c1ccc(Cl)c(Cl)c1)c1cc(-c2ccccn2)c(N2CCOCC2)s1`, the AC50 is 11.2 µM [falling, partial curve, poor fit] under setting [2] and 11.2 µM [falling, partial curve, poor fit] under setting [1].

Take `Cc1c(/C=C/C(=O)c2ccc(C(C)C)cc2)cnn1C`: the AC50 under setting [2] was 6.31 µM [rising, partial curve, poor fit] and the AC50 under setting [1] was 3.55 µM [rising, partial curve].

Turning to `CC1CN(S(=O)(=O)c2cccc(-c3cn4cccnc4n3)c2)CC(C)O1` (stereo not given), the AC50 under setting [1] was 0.00501 µM [rising, full curve, poor fit].

As to `C=CCN1C(=O)/C(=N/n2cnnc2)c2ccccc21`, the half-maximal activity concentration (AC50) under setting [1] is 3.55 µM [falling, partial curve].

Consider `Cc1ccc(NC(=O)c2ccc(Nc3c([N+](=O)[O-])cc([N+](=O)[O-])cc3[N+](=O)[O-])cc2)cc1`, for which the AC50 under setting [1] was 3.55 µM [falling, single point].

`CCn1c(SCC(=O)NCc2ccc3c(c2)OCO3)nnc1-c1c[nH]c2ccccc12`: the AC50 under setting [1] was 17.8 µM [rising, single point].

As to `Cc1cn2c(=O)cc(COC(=O)c3ccc(NC(=O)C(C)Oc4ccccc4)cc3)nc2s1` (stereo not given), the AC50 under setting [2] is 11.2 µM [falling, partial curve, poor fit].

For `O=C(Nc1ccc2ccccc2c1)C(c1ccccc1)C1CCCC1` (stereo not given), the AC50 under setting [1] is 15.8 µM [rising, partial curve].

As for `Cc1ccc(Nc2nc3ccccc3c(=O)s2)cc1C`, the AC50 by setting is: under setting [2], 31.6 µM [rising, single point]; under setting [1], 35.5 µM [rising, single point].

As to `Cc1cc(=O)c2ccc(Cl)cc2[nH]1`, the AC50 under setting [1] was 15.8 µM [rising, partial curve, poor fit].

In the case of `COc1ccc(CCNC(=O)c2cc(=O)[nH]c3ccc(S(=O)(=O)N4CCCCC4C)cc23)cc1OC` (stereo not given), under setting [2], the AC50 is 6.31 µM [falling, partial curve, poor fit].

As for `COc1ccc(-c2ccc(-c3noc(-c4cccc(OC)c4)n3)c(OC)n2)cc1`, the concentration at half-maximal activity (AC50) under setting [2] is 0.0224 µM [rising, full curve, poor fit] and the AC50 under setting [1] is 7.08 µM [rising, partial curve, poor fit].

As to `O=C(CCc1nc(-c2ccccc2)no1)Nc1cc(C(F)(F)F)ccc1Cl`, the AC50 under setting [2] is 35.5 µM [rising, single point].

As to `O=C(Nc1cc(Cl)cc(Cl)c1)c1cc(S(=O)(=O)N2CCC3(CC2)OCCO3)ccc1F`, the AC50 under setting [1] was 0.141 µM [falling, full curve, poor fit].

In the case of `O=C(Nc1ccccc1N1CCCCC1)c1cccs1`, the AC50 under setting [1] is 22.4 µM [rising, single point].

Turning to `CCSc1ccc2nnc(-c3cccs3)n2n1`, under setting [2], the AC50 was 0.01 µM [rising, full curve, poor fit].

`CC/C(=N\NC(=O)c1ccoc1C)c1ccc(C)o1`: the AC50 under setting [2] was 0.794 µM [rising, partial curve].

Regarding `COC1=C(N)C(=O)c2nc(-c3nc(C(=O)O)c(C)c(-c4ccc(OC)c(OC)c4O)c3N)ccc2C1=O`, the AC50 reads like this: under setting [2], 0.126 µM [falling, full curve, poor fit]; under setting [1], 0.126 µM [rising, full curve, poor fit].

As for `CCOc1ccc(Br)cc1S(=O)(=O)Nc1cccc(-c2ccc(OC)nn2)c1`, the AC50 runs as follows: under setting [2], 22.4 µM [falling, partial curve, poor fit]; under setting [1], 35.5 µM [falling, single point].

`Cc1ccnc(NC(c2ccsc2)c2ccc3ccc(C)nc3c2O)c1` (stereo not given): the half-maximal activity concentration (AC50) under setting [1] was 28.2 µM [falling, single point].

As to `CCOc1ccc(S(=O)(=O)n2ccc(C)n2)c2ccccc12`, under setting [1], the AC50 is 35.5 µM [rising, single point].

For `COc1cc2c(cc1OC)C(c1cc3cc4c(cc3[nH]c1=O)OCO4)N(C(=O)C1CC1)CC2` (stereo not given), the AC50 under setting [1] is 12.6 µM [rising, partial curve, poor fit].

Regarding `CCOC(=O)Nc1ccc2c(c1)N(C(=O)N(CC)CC)c1ccccc1CC2`, under setting [1], the AC50 was 35.5 µM [rising, single point].

Take `O=C(CSc1ccc([N+](=O)[O-])cn1)Nc1ccc2c(c1)OCCO2`: under setting [2], the AC50 was 4.47 µM [rising, partial curve].

Take `COc1ccc(OC)c2c1C(=O)c1ccccc1C2=O`: the AC50 under setting [2] is 0.126 µM [rising, full curve, poor fit].

For the compound `CC12CC(c3ccccc3O1)N(C(=O)c1ccco1)C(=S)N2c1ccc(F)cc1` (stereo not given), the AC50 is 28.2 µM [falling, single point] under setting [2] and 11.2 µM [falling, partial curve] under setting [1].

For the compound `COC(=O)c1cn(NC(=O)c2cc([N+](=O)[O-])ccc2F)c(=O)c2ccccc12`, the AC50 is 0.562 µM [falling, full curve] under setting [2] and 11.2 µM [falling, partial curve, poor fit] under setting [1].

For the compound `Cc1ccc(C(=O)CSc2nnc(-c3ccco3)n2Cc2ccccc2)cc1`, the AC50 under setting [2] was 11.2 µM [rising, partial curve] and the AC50 under setting [1] is 11.2 µM [rising, partial curve].

Consider `CC(=O)Nc1ccc(Sc2ncccc2C(=O)Nc2ccc(F)cc2)cn1`, for which the AC50 under setting [2] is 15.8 µM [rising, partial curve].

`O=C(OCCN1CCOCC1)c1cccs1`: the AC50 under setting [2] is 2.24 µM [rising, full curve].

In the case of `Cc1ccccc1NC(=O)/C(C#N)=C\c1ccsc1`, the AC50 under setting [1] is 8.91 µM [rising, partial curve].

`Cc1cc(/C=N/n2cnnc2)c(C)n1-c1ccc(OCc2ccccc2F)cc1`: under setting [1], the AC50 is 7.94 µM [falling, partial curve].

As to `CC1CCCN(CCCNC(=O)c2cc3c(Cl)nc4ccccc4c3s2)C1` (stereo not given), the AC50 under setting [2] was 35.5 µM [falling, single point].

As to `C/C(Cl)=C/Cn1c(N2CCCC2)nc2c1c(=O)n(C)c(=O)n2C`, the concentration at half-maximal activity (AC50) under setting [1] is 10 µM [rising, partial curve, poor fit].

`CCc1ccccc1N(C)C(=O)c1sc2nc3n(c(=O)c2c1C)CCCCC3`: the AC50 is 5.01 µM [rising, partial curve] under setting [2] and 2.82 µM [rising, partial curve, poor fit] under setting [1].

`CCCCS(=O)(=O)Nc1ccc(Cc2ccncc2)cc1`: the half-maximal activity concentration (AC50) under setting [2] is 20 µM [rising, partial curve] and the AC50 under setting [1] is 15.8 µM [rising, single point].

As for `FC(F)(F)c1cccc(N2CCN(C(=S)NC3CCCCC3)CC2)c1`, the concentration at half-maximal activity (AC50) is, setting by setting: under setting [2], 35.5 µM [rising, single point]; under setting [1], 35.5 µM [rising, single point].

On to `Cc1cccc(NC(=O)CNC(=O)COc2ccc(-c3ccc(C#N)cc3)cc2)c1C`, for which the AC50 is 11.2 µM [rising, single point] under setting [2] and 12.6 µM [rising, partial curve] under setting [1].

For `COCCNC(=O)c1cc(-c2cccs2)on1`, the AC50 runs as follows: under setting [2], 35.5 µM [falling, single point]; under setting [1], 35.5 µM [falling, single point].

`O=S(=O)(NCc1ccccc1)NCc1ccccc1F`: the AC50 under setting [1] was 6.31 µM [falling, partial curve].

On to `COCC(C)NC(=O)CSc1nc(-c2ccccc2)c(-c2ccccc2)o1` (stereo not given), for which, under setting [1], the AC50 was 35.5 µM [rising, single point].

Turning to `Oc1c(C(c2cccs2)N2CCN(c3ccccc3)CC2)ccc2cccnc12` (stereo not given), the AC50 under setting [1] is 6.31 µM [falling, single point].

With `CC(C(=O)NCCC1=CCCCC1)c1ccc([N+](=O)[O-])cc1` (stereo not given), the AC50 under setting [2] is 0.0316 µM [falling, full curve, poor fit].

For the compound `CCCCOc1ccc(CSCCN=C(N)N)cc1`, the concentration at half-maximal activity (AC50) is 35.5 µM [falling, partial curve, poor fit] under setting [2] and 0.00282 µM [falling, full curve, poor fit] under setting [1].
